Data on 55 molecules can be found in PubChem BioAssay AID1487 (National Center for Advancing Translational Sciences (NCATS), 2009).

Some of the results follow. Further columns of the screen follow, without active or inactive calls. Compounds called inactive in the main read-out are mostly missing here. The note in brackets gives the kind of curve behind each potency; many fits are weak.

The nature of the test: qHTS Assay for Modulators of Lamin A Splicing. The conditions noted are these: HeLa LMNA splicing GFP/RFP minigene ratio, 48 h. The method in brief: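 S3 HeLa stable clones carrying a lamin A-EGFP splicing minigene plus DsRed2 were seeded at 600 cells/well in Opti-MEM with 2% FBS, pin-dosed and incubated 48 h at 37°C. Acumen cytometry (488 nm) gave the GFP/RFP total-intensity ratio.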

[1] abbreviates: measured here: RFP viability control channel.
[2] abbreviates: measured here: GFP splicing reporter channel.

Broadly, the AC50 is the midpoint of the concentration-response curve, whichever way the signal moves. With `CN(C(=O)COc1ccc(Br)cc1Cl)C1CCCCC1`, under setting [1], the concentration at half-maximal activity (AC50) is 7.08 µM [falling, partial curve, poor fit].

For the molecule `Cc1cc(Cl)c(S(=O)(=O)N2CCCCCC2)cc1OCC(=O)NC1CCCCC1`, the concentration at half-maximal activity (AC50) reads like this: under setting [2], 0.794 µM [rising, full curve]; under setting [1], 0.631 µM [rising, full curve, poor fit]. As for `CCOc1cc(CNc2cccc3ccccc23)cc(Br)c1OCC(=O)NC(C)(C)C`, the concentration at half-maximal activity (AC50) was 35.5 µM [rising, single point] under setting [2] and 35.5 µM [rising, single point] under setting [1].

For `CC(=O)N(C)c1ccc(NC(=S)Nc2ccc(C(C)C)cc2)cc1`, the half-maximal activity concentration (AC50) under setting [1] was 5.62 µM [rising, partial curve, poor fit]. With `COc1ccc(N2CCN(C(=O)CC34CC5CC(CC(C5)C3)C4)CC2)c([N+](=O)[O-])c1`, under setting [1], the concentration at half-maximal activity (AC50) was 8.91 µM [rising, partial curve]. As for `CC(C)N1C(=O)/C(=C\c2nc3ccccc3c(=O)n2-c2ccccc2)c2ccccc21`, the AC50 runs as follows: under setting [2], 5.62 µM [rising, single point]; under setting [1], 2.82 µM [falling, single point]. As to `CCOC(=O)c1c(NC(=O)CSc2ncnc3ccccc23)sc(C(C)=O)c1C`, the half-maximal activity concentration (AC50) under setting [1] was 3.16 µM [rising, single point]. As for `Nc1ccc2c(c1Cl)C(=O)c1ccc(N)c(Cl)c1C2=O`, the AC50 under setting [2] was 3.55 µM [falling, partial curve, poor fit].

Regarding `O=C(CSC1=NCCS1)N1CCCC1`, under setting [1], the half-maximal activity concentration (AC50) was 35.5 µM [rising, single point]. `CN(C)c1ccc(-c2nc(NCCN3CCOCC3)c3ccccc3n2)cc1`: the AC50 under setting [2] was 12.6 µM [falling, partial curve] and the AC50 under setting [1] is 17.8 µM [falling, single point]. Turning to `COc1ccccc1CNc1cc(-c2ccccc2OC)ncn1`, the half-maximal activity concentration (AC50) is, setting by setting: under setting [2], 5.01 µM [falling, full curve]; under setting [1], 7.08 µM [falling, partial curve]. Take `O=C(c1ccco1)N1N=C(c2ccc3nccnc3c2)CC1c1ccccc1` (configuration not stated): the AC50 runs as follows: under setting [2], 8.91 µM [rising, partial curve]; under setting [1], 20 µM [rising, single point]. `Cc1ccc(NC(=S)N2CCC(c3nc4ccccc4s3)CC2)cc1`: under setting [1], the AC50 is 11.2 µM [rising, partial curve]. Still for that read-out and setting: for `O=C(c1cc([N+](=O)[O-])ccc1Cl)N1CCN(c2ccc([N+](=O)[O-])cc2)CC1` the value was 11.2 µM [rising, partial curve].

With `COC(=O)c1scc(-c2ccc(C)cc2)c1S(=O)(=O)Nc1ccc(F)cc1F`, the AC50 under setting [2] is 3.55 µM [falling, full curve, poor fit]. Turning to `CCn1cnc2cc(NC(=O)c3cccs3)ccc21`, the AC50 under setting [2] was 0.00447 µM [rising, full curve, poor fit]. Turning to `CC(C)=CCc1c2c(c3occ(-c4ccc(O)cc4)c(=O)c3c1O)C=CC(C)(C)O2`, under setting [1], the AC50 is 35.5 µM [falling, single point]. On to `CCC(C)NS(=O)(=O)c1ccc(S(=O)(=O)N2CC=C(c3ccc(F)cc3)CC2)cc1` (configuration not stated), for which the half-maximal activity concentration (AC50) was 12.6 µM [rising, single point] under setting [2] and 15.8 µM [rising, single point] under setting [1]. Turning to `O=C(Nc1ccc(N2CCOCC2)cc1)Nc1ccc2nc(-c3ccco3)c(-c3ccco3)nc2c1`, under setting [2], the AC50 is 15.8 µM [falling, partial curve].

Regarding `CCCCn1c(SCc2ccc(C(=O)OC)o2)nc2cc(S(N)(=O)=O)ccc21`, the AC50 under setting [1] was 3.16 µM [rising, full curve]. As to `Cc1nn2c(=O)cc(COC(=O)c3cccc(NC(=O)COc4ccccc4Cl)c3)nc2s1`, the concentration at half-maximal activity (AC50) under setting [2] is 35.5 µM [rising, single point] and the concentration at half-maximal activity (AC50) under setting [1] was 31.6 µM [rising, single point]. Regarding `CCN(Cc1ccccc1)c1ccc(/C=N/N2CCOCC2)cc1`, the half-maximal activity concentration (AC50) under setting [1] was 20 µM [rising, single point]. Same read-out and setting: the value for `C=CCN(CC=C)C(=S)NC(=O)c1ccc([N+](=O)[O-])cc1` was 31.6 µM [rising, single point]. Regarding `CC1(C)Cc2c(c(N3CCOCC3)nc3snc(N)c23)CO1`, the concentration at half-maximal activity (AC50) was 14.1 µM [rising, partial curve, poor fit] under setting [2] and 15.8 µM [rising, single point] under setting [1]. As for `Cc1cc2cc(CCNC(=O)c3ccc(C)c([N+](=O)[O-])c3)c(=O)[nH]c2cc1C`, the concentration at half-maximal activity (AC50) under setting [1] was 17.8 µM [rising, single point]. Regarding `COc1ccc(NC(=S)N(CCN(C)C)C(C)c2ccco2)cc1Cl` (configuration not stated), the AC50 runs as follows: under setting [2], 35.5 µM [rising, single point]; under setting [1], 25.1 µM [rising, partial curve]. For `CCc1nccn1C(=O)c1cnn2c(C(F)F)cc(-c3ccccc3)nc12`, the AC50 under setting [2] is 0.00631 µM [rising, full curve, poor fit] and the AC50 under setting [1] was 35.5 µM [rising, single point].

Turning to `CC(C)n1c(-c2ccc(N(C)C)cc2)nc2ccccc21`, the concentration at half-maximal activity (AC50) was 12.6 µM [rising, partial curve] under setting [2] and 22.4 µM [rising, partial curve] under setting [1]. As to `CSc1ccc(/C=C(\C#N)C(=O)NC2CCCCC2C)cc1` (configuration not stated), the AC50 by setting is: under setting [2], 35.5 µM [rising, single point]; under setting [1], 35.5 µM [rising, single point].

Regarding `O=[N+]([O-])c1ccc(N/N=C/c2ccc[nH]2)cc1`, the half-maximal activity concentration (AC50) reads like this: under setting [2], 11.2 µM [rising, partial curve]; under setting [1], 17.8 µM [rising, partial curve]. As for `CCCCC(CC(O)COCCC)c1n[nH]c(=S)n1-c1ccccc1` (configuration not stated), the concentration at half-maximal activity (AC50) runs as follows: under setting [2], 0.0178 µM [falling, full curve, poor fit]; under setting [1], 0.01 µM [falling, full curve, poor fit]. With `COc1ccc(CNC(=O)CCC2N=C3c4ccccc4N=C(SCc4cccc(F)c4)N3C2=O)cc1` (configuration not stated), the AC50 under setting [2] is 10 µM [rising, single point].

Turning to `O=C(Cn1cnc(Cl)c1Cl)c1ccccc1`, the AC50 under setting [2] is 1.78 µM [rising, partial curve, poor fit].

As to `O=C(CCSc1ccccc1)Nc1ccccc1C(=O)N1CCCC1`, the AC50 under setting [1] was 3.16 µM [rising, single point].

Regarding `Cc1cc(C(=O)OCC(=O)NCc2ccco2)c(C)n1-c1ccccc1`, the AC50 was 17.8 µM [rising, single point] under setting [2] and 10 µM [rising, partial curve] under setting [1].

For the molecule `Nc1ncnc(Sc2ncccn2)c1[N+](=O)[O-]`, under setting [2], the AC50 was 25.1 µM [falling, partial curve, poor fit].

Turning to `CCCCSC1=C(C#N)C(c2ccccc2C)C(C(=O)OCC)C(=O)N1` (configuration not stated), under setting [1], the AC50 was 15.8 µM [rising, partial curve].

Consider `CN(C)c1ccc(/C=N/NC(=O)c2cccc(C(=O)N/N=C/c3ccc(N(C)C)cc3)n2)cc1`, for which the AC50 under setting [2] is 0.00562 µM [falling, full curve]. Same read-out and setting: the value for `C=CCc1cccc(CNc2nc3ccccc3n2CCC)c1O` was 14.1 µM [rising, single point]. For the molecule `Cc1ccc(-n2c(C)cc(C(=O)CSc3nncs3)c2C)cc1`, the AC50 under setting [1] is 6.31 µM [rising, full curve]. On to `COc1ccc(CCC(=O)Nc2cc(Cl)ccc2N2CCN(C)CC2)cc1`, for which the AC50 under setting [2] was 35.5 µM [rising, single point].

As for `Cc1cc(NC(=O)COCc2cc(-c3ccc(F)cc3)on2)ccc1Br`, the AC50 under setting [1] is 35.5 µM [falling, partial curve, poor fit].

Regarding `CCSc1cc(N2CCOCC2)nc(-c2ccccc2)n1`, the AC50 under setting [2] was 14.1 µM [rising, single point].

In the case of `Cc1ccc(CSc2nnc(-c3cccc(S(=O)(=O)N4CCOCC4)c3)n2CC(C)C)cc1`, the AC50 under setting [2] was 14.1 µM [rising, single point] and the half-maximal activity concentration (AC50) under setting [1] is 25.1 µM [rising, single point]. `Cc1ccc(C)c(N2CCN(C(=O)CCCN3C(=S)NC(C)(C)CC3C)CC2)c1` (configuration not stated): the concentration at half-maximal activity (AC50) reads like this: under setting [2], 5.01 µM [rising, partial curve]; under setting [1], 8.91 µM [rising, partial curve]. With `CCOc1ccc(C2=Nn3c(nnc3-c3ccc(OC)cc3)SC2)cc1`, the AC50 under setting [1] was 4.47 µM [rising, partial curve]. For the molecule `CCCn1c2ccccc2c2cnn(CC(=O)N3CCN(c4ccccc4F)CC3)c(=O)c21`, the AC50 under setting [2] was 0.112 µM [rising, single point]. For the molecule `CC(C)CCn1c(SCc2ccc(Cl)cc2)nc2c1c(=O)[nH]c(=O)n2C`, the AC50 reads like this: under setting [2], 3.16 µM [rising, full curve]; under setting [1], 2.51 µM [rising, single point].

`COC(=O)C1=C(C)NC(C)=C(C(=O)OCC(C)C)C1c1ccccc1[N+](=O)[O-]` (configuration not stated): the AC50 under setting [1] was 7.94 µM [rising, partial curve, poor fit]. Same read-out and setting: the value for `CCOc1ccccc1NC(=O)CN(c1ccc(C)cc1)S(=O)(=O)c1c(C)noc1C` was 14.1 µM [rising, single point]. In the case of `CCOC(=O)N1CCN(C(=O)CSCC(=O)Nc2nc(-c3ccc4c(c3)OCO4)cs2)CC1`, the AC50 runs as follows: under setting [2], 12.6 µM [rising, single point]; under setting [1], 15.8 µM [rising, single point].

Regarding `O=C(C1CCCCN1S(=O)(=O)c1ccccc1)N1CCN(C(c2ccccc2)c2ccccc2)CC1` (configuration not stated), the concentration at half-maximal activity (AC50) is 7.94 µM [rising, partial curve] under setting [2] and 11.2 µM [rising, partial curve] under setting [1]. `COc1ccc(OC)c(CNS(=O)(=O)c2ccc3[nH]c4c(c3c2)CCCCC4)c1`: the concentration at half-maximal activity (AC50) under setting [1] is 35.5 µM [rising, single point].

With `O=C(CSc1nc2ccc(Cl)cc2[nH]1)NC1CCCc2ccccc21` (configuration not stated), the half-maximal activity concentration (AC50) was 31.6 µM [rising, single point] under setting [2] and 35.5 µM [rising, single point] under setting [1].

`COc1cccc(CN2CCN(Cc3nc(-c4cccc(F)c4F)oc3C)CC2=O)c1`: the half-maximal activity concentration (AC50) under setting [2] is 1.26 µM [falling, full curve].
